{"source": "PubChem BioAssay AID686943 (Drosophila RNAi Screening Center, 2013)", "purpose": "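Knockdowns that increase or decrease active ERK after insulin receptor stimulation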 (primary screen)", "system": "Drosophila S2R+ haemocyte-like cells expressing YFP-tagged ERK (Rolled)", "reagent": "long dsRNA against Drosophila genes", "challenge": "insulin stimulation versus unstimulated cells; dose and duration not given", "read-out": "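Per-plate z-scores of phospho-ERK immunostaining normalised to YFP-tagged ERK, measured with and without insulin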", "scale": "replicate 1, z-score of dpERK with insulin and replicate 2, z-score of dpERK with insulin: higher = more active ERK per ERK-YFP after insulin", "note": "The deposit covers about 23,000 reagents; this is a random part of those that have a named target and a result. 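Extra replicates exist only for a retested subset of genes; insulin dose and duration not given; both raised and lowered dpERK matter.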 Reagents against one gene are numbered here. Names joined by + are all predicted targets of the reagent. Further read-outs or replicates are left out here. Not given: the amount of reagent, the time to read-out."}
{"gene": "CG30491", "dsRNA no.": 1, "replicate 1, z-score of dpERK with insulin": 0.99, "replicate 2, z-score of dpERK with insulin": -0.41}
{"gene": "CG6878", "dsRNA no.": 1, "replicate 1, z-score of dpERK with insulin": -0.33, "replicate 2, z-score of dpERK with insulin": -0.58}
{"gene": "dbo (diablo)", "dsRNA no.": 1, "replicate 1, z-score of dpERK with insulin": 0.65, "replicate 2, z-score of dpERK with insulin": -0.05}
{"gene": "mRpL52 (mitochondrial ribosomal protein L52)", "dsRNA no.": 1, "replicate 1, z-score of dpERK with insulin": 0.79, "replicate 2, z-score of dpERK with insulin": 0.86}
{"gene": "CG8229 + CG33199", "dsRNA no.": 1, "replicate 1, z-score of dpERK with insulin": -1.47, "replicate 2, z-score of dpERK with insulin": -0.54}
{"gene": "Zw (Zwischenferment)", "dsRNA no.": 1, "replicate 1, z-score of dpERK with insulin": -1.09, "replicate 2, z-score of dpERK with insulin": 1.03}
{"gene": "AdamTS-A (ADAM metallopeptidase with thrombospondin type 1 motif A)", "dsRNA no.": 1, "replicate 1, z-score of dpERK with insulin": 0.39, "replicate 2, z-score of dpERK with insulin": 0.34}
{"gene": "AdamTS-A (ADAM metallopeptidase with thrombospondin type 1 motif A)", "dsRNA no.": 2, "replicate 1, z-score of dpERK with insulin": 0.4, "replicate 2, z-score of dpERK with insulin": -0.5}
{"gene": "CG14423", "dsRNA no.": 1, "replicate 1, z-score of dpERK with insulin": -0.27, "replicate 2, z-score of dpERK with insulin": -0.26}
{"gene": "angel", "dsRNA no.": 1, "replicate 1, z-score of dpERK with insulin": 1.2, "replicate 2, z-score of dpERK with insulin": 0.27}
{"gene": "angel", "dsRNA no.": 2, "replicate 1, z-score of dpERK with insulin": 0.94, "replicate 2, z-score of dpERK with insulin": 0.61}
{"gene": "CG42748", "dsRNA no.": 1, "replicate 1, z-score of dpERK with insulin": -0.39, "replicate 2, z-score of dpERK with insulin": 0.9}
{"gene": "CG42748", "dsRNA no.": 2, "replicate 1, z-score of dpERK with insulin": 1.1, "replicate 2, z-score of dpERK with insulin": 0.29}
{"gene": "CG42748", "dsRNA no.": 3, "replicate 1, z-score of dpERK with insulin": 0.29, "replicate 2, z-score of dpERK with insulin": 0.52}
{"gene": "Cdc37 (Cell division cycle 37)", "dsRNA no.": 1, "replicate 1, z-score of dpERK with insulin": -0.94, "replicate 2, z-score of dpERK with insulin": 0.11}
{"gene": "CG18327", "dsRNA no.": 1, "replicate 1, z-score of dpERK with insulin": -0.37, "replicate 2, z-score of dpERK with insulin": 0.09}
{"gene": "CG13375", "dsRNA no.": 1, "replicate 1, z-score of dpERK with insulin": 0.1, "replicate 2, z-score of dpERK with insulin": 0}
{"gene": "AGO1 (Argonaute-1)", "dsRNA no.": 1, "replicate 1, z-score of dpERK with insulin": 3.77, "replicate 2, z-score of dpERK with insulin": 1.06}
{"gene": "Nepl9 (Neprilysin-like 9)", "dsRNA no.": 1, "replicate 1, z-score of dpERK with insulin": -0.65, "replicate 2, z-score of dpERK with insulin": -0.29}
{"gene": "Trm1 (tRNA methyltransferase 1)", "dsRNA no.": 1, "replicate 1, z-score of dpERK with insulin": -0.48, "replicate 2, z-score of dpERK with insulin": -0.53}
{"gene": "CG5440", "dsRNA no.": 1, "replicate 1, z-score of dpERK with insulin": -0.47, "replicate 2, z-score of dpERK with insulin": 0.03}
{"gene": "CG12546", "dsRNA no.": 1, "replicate 1, z-score of dpERK with insulin": -0.07, "replicate 2, z-score of dpERK with insulin": 0.05}
{"gene": "Prp19 (Pre-RNA processing factor 19)", "dsRNA no.": 1, "replicate 1, z-score of dpERK with insulin": 0.94, "replicate 2, z-score of dpERK with insulin": 0.21}
{"gene": "CG8837", "dsRNA no.": 1, "replicate 1, z-score of dpERK with insulin": 0.47, "replicate 2, z-score of dpERK with insulin": -0.27}
{"gene": "Elp6 (Elongator complex protein 6)", "dsRNA no.": 1, "replicate 1, z-score of dpERK with insulin": -0.49, "replicate 2, z-score of dpERK with insulin": 0.23}
{"gene": "Best1 (Bestrophin 1)", "dsRNA no.": 1, "replicate 1, z-score of dpERK with insulin": 0.49, "replicate 2, z-score of dpERK with insulin": 0.35}
{"gene": "Vml (Vitelline membrane-like)", "dsRNA no.": 1, "replicate 1, z-score of dpERK with insulin": 0.79, "replicate 2, z-score of dpERK with insulin": 0.46}
{"gene": "Vml (Vitelline membrane-like)", "dsRNA no.": 2, "replicate 1, z-score of dpERK with insulin": 1.67, "replicate 2, z-score of dpERK with insulin": 0.14}
{"gene": "CG17572", "dsRNA no.": 1, "replicate 1, z-score of dpERK with insulin": -0.21, "replicate 2, z-score of dpERK with insulin": 1.16}
{"gene": "Reph (Regulator of eph expression)", "dsRNA no.": 1, "replicate 1, z-score of dpERK with insulin": 0.25, "replicate 2, z-score of dpERK with insulin": 0.58}
{"gene": "Reph (Regulator of eph expression)", "dsRNA no.": 2, "replicate 1, z-score of dpERK with insulin": -0.5, "replicate 2, z-score of dpERK with insulin": -0.57}
{"gene": "P32", "dsRNA no.": 1, "replicate 1, z-score of dpERK with insulin": 0.25, "replicate 2, z-score of dpERK with insulin": 0.14}
{"gene": "CG15167", "dsRNA no.": 1, "replicate 1, z-score of dpERK with insulin": 0.16, "replicate 2, z-score of dpERK with insulin": 0.12}
{"gene": "CG8534", "dsRNA no.": 1, "replicate 1, z-score of dpERK with insulin": 1.08, "replicate 2, z-score of dpERK with insulin": 0.91}
{"gene": "CG9166", "dsRNA no.": 1, "replicate 1, z-score of dpERK with insulin": -1.45, "replicate 2, z-score of dpERK with insulin": -1.06}
{"gene": "RnrS (Ribonucleoside diphosphate reductase small subunit)", "dsRNA no.": 1, "replicate 1, z-score of dpERK with insulin": -4.55, "replicate 2, z-score of dpERK with insulin": -1.72}
{"gene": "Naa30A (N(alpha)-acetyltransferase 30 A)", "dsRNA no.": 1, "replicate 1, z-score of dpERK with insulin": -2.64, "replicate 2, z-score of dpERK with insulin": 2.72}
{"gene": "CG11162", "dsRNA no.": 1, "replicate 1, z-score of dpERK with insulin": 1.16, "replicate 2, z-score of dpERK with insulin": 0.72}
{"gene": "CG11162", "dsRNA no.": 2, "replicate 1, z-score of dpERK with insulin": 0.81, "replicate 2, z-score of dpERK with insulin": 0.52}
{"gene": "CG14187", "dsRNA no.": 1, "replicate 1, z-score of dpERK with insulin": 0.17, "replicate 2, z-score of dpERK with insulin": 0.34}

Part of the list above, showing only “replicate 1, z-score of dpERK with insulin”.
AdamTS-A (ADAM metallopeptidase with thrombospondin type 1 motif A) #1: 0.39
AdamTS-A (ADAM metallopeptidase with thrombospondin type 1 motif A) #2: 0.4
CG14423: -0.27
